Data on ten molecules can be found in publication PMC10648221.

Sequences of proteins named here, by UniProt entry; tags and fusion partners are left off. Residues count along the entry.
UniProt P18510, residues 26-177: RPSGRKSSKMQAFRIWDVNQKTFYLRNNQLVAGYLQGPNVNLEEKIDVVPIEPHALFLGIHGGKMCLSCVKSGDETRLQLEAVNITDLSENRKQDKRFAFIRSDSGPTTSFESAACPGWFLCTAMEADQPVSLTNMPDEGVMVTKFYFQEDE
UniProt Q9Y4B6: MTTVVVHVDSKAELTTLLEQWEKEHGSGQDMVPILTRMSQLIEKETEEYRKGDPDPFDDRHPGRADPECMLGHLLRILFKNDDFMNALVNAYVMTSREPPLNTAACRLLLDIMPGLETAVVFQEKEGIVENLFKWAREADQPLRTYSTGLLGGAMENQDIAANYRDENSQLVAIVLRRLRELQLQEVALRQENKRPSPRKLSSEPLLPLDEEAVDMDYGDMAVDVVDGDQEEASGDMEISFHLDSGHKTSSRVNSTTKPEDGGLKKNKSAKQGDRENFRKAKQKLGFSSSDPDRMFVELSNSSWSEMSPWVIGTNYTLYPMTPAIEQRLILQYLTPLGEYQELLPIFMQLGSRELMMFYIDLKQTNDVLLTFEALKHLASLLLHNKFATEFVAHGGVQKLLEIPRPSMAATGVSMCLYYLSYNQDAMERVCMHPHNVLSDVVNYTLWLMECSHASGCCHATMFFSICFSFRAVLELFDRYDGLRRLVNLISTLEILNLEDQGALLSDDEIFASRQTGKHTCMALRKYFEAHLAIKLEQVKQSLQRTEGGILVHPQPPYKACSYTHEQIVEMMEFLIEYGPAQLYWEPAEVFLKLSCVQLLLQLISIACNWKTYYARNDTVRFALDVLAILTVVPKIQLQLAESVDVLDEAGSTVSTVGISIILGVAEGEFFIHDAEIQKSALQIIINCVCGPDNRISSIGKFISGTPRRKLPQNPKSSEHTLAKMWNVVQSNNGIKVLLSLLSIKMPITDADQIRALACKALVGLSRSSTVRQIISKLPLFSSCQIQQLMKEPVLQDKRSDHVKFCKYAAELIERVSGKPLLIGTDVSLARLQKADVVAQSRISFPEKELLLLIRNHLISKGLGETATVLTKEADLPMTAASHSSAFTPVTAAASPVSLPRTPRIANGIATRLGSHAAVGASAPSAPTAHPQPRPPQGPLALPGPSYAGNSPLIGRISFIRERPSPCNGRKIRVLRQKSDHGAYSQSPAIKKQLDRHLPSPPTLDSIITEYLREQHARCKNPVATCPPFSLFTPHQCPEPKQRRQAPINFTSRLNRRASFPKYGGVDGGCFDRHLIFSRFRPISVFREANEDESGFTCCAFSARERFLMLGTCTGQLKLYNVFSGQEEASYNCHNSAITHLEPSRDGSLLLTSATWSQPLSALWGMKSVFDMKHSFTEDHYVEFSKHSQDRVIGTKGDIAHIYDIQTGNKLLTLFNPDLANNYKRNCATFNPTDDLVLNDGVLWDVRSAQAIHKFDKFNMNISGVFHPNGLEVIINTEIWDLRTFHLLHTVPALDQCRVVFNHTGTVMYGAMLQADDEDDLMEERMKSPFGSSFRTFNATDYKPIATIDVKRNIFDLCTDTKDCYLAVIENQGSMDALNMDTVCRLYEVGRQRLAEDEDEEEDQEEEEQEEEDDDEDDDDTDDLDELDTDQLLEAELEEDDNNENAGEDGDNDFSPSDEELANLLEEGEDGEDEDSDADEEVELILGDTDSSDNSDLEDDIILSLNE
UniProt P00441: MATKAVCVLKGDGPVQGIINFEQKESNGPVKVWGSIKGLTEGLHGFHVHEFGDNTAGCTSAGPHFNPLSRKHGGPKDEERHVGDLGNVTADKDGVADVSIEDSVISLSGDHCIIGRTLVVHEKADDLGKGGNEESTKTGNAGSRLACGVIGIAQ
UniProt Q7Z494: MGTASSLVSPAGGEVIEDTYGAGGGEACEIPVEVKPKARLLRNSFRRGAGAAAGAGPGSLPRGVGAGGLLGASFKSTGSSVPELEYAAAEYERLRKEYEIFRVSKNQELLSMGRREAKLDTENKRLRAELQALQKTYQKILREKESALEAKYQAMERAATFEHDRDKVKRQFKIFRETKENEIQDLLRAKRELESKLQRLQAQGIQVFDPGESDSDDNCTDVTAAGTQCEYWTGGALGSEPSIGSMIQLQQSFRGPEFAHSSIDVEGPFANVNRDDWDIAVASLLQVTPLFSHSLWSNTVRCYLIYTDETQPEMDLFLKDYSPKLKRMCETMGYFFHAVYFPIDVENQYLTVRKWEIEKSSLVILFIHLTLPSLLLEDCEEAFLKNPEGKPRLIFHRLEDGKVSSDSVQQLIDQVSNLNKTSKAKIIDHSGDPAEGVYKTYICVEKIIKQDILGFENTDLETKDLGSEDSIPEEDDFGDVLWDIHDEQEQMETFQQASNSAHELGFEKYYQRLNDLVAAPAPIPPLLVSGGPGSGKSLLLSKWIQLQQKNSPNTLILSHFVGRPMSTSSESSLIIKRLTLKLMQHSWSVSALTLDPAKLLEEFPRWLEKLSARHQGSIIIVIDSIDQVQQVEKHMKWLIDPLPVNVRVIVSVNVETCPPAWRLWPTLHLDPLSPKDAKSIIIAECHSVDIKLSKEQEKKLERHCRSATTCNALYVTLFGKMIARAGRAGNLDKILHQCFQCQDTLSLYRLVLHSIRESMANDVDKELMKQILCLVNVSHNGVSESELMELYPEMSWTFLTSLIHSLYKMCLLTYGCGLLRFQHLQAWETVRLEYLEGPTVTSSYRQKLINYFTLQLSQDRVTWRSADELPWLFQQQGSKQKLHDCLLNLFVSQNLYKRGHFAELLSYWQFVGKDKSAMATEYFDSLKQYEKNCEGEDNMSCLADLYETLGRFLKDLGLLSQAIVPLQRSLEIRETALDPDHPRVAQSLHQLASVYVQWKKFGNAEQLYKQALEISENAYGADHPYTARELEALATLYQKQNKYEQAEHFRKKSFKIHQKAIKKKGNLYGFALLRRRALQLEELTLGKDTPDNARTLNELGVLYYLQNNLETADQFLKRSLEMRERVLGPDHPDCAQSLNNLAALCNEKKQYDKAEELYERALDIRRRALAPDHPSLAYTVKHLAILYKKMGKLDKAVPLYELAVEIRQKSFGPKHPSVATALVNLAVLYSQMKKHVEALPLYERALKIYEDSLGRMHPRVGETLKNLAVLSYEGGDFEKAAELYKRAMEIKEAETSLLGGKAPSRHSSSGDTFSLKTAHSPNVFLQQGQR

No constants are given. Whether binding was seen depends on the method and setting. In cells and extracts the contact can be indirect. Some results given as binding are weak or reduced against the parent protein; the word gives no strength.

First the molecules themselves.
B1: SPRY domain-containing protein 7 (protein, UniProt Q5W111 1-196)
chain: MATSVLCCLRCCRDGGTGHIPLKEMPAVQLDTQHMGTDVVIVKNGRRICGTGGCLASAPLHQNKSYFEFKIQSTGIWGIGVATQKVNLNQIPLGRDMHSLVMRNDGALYHNNEEKNRLPANSLPQEGDVVGITYDHVELNVYLNGKNMHCPASGIRGTVYPVVYVDDSAILDCQFSEFYHTPPPGFEKILFEQQIF
B2: BLMH (protein, UniProt Q13867 1-455)
chain: MSSSGLNSEKVAALIQKLNSDPQFVLAQNVGTTHDLLDICLKRATVQRAQHVFQHAVPQEGKPITNQKSSGRCWIFSCLNVMRLPFMKKLNIEEFEFSQSYLFFWDKVERCYFFLSAFVDTAQRKEPEDGRLVQFLLMNPANDGGQWDMLVNIVEKYGVIPKKCFPESYTTEATRRMNDILNHKMREFCIRLRNLVHSGATKGEISATQDVMMEEIFRVVCICLGNPPETFTWEYRDKDKNYQKIGPITPLEFYREHVKPLFNMEDKICLVNDPRPQHKYNKLYTVEYLSNMVGGRKTLYNNQPIDFLKKMVAASIKDGEAVWFGCDVGKHFNSKLGLSDMNLYDHELVFGVSLKNMNKAERLTFGESLMTHAMTFTAVSEKDDQDGAFTKWRVENSWGEDHGHKGYLCMTDEWFSEYVYEVVVDRKHVPEEVLAVLEQEPIILPAWDPMGALAE
B3: A2ML1 (protein, UniProt A8K2U0 18-1454)
chain: EELPNYLVTLPARLNFPSVQKVCLDLSPGYSDVKFTVTLETKDKTQKLLEYSGLKKRHLHCISFLVPPPAGGTEEVATIRVSGVGNNISFEEKKKVLIQRQGNGTFVQTDKPLYTPGQQVYFRIVTMDSNFVPVNDKYSMVELQDPNSNRIAQWLEVVPEQGIVDLSFQLAPEAMLGTYTVAVAEGKTFGTFSVEEYVLPKFKVEVVEPKELSTVQESFLVKICCRYTYGKPMLGAVQVSVCQKANTYWYREVEREQLPDKCRNLSGQTDKTGCFSAPVDMATFDLIGYAYSHQINIVATVVEEGTGVEANATQNIYISPQMGSMTFEDTSNFYHPNFPFSGKIRVRGHDDSFLKNHLVFLVIYGTNGTFNQTLVTDNNGLAPFTLETSGWNGTDVSLEGKFQMEDLVYNPEQVPRYYQNAYLHLRPFYSTTRSFLGIHRLNGPLKCGQPQEVLVDYYIDPADASPDQEISFSYYLIGKGSLVMEGQKHLNSKKKGLKASFSLSLTFTSRLAPDPSLVIYAIFPSGGVVADKIQFSVEMCFDNQVSLGFSPSQQLPGAEVELQLQAAPGSLCALRAVDESVLLLRPDRELSNRSVYGMFPFWYGHYPYQVAEYDQCPVSGPWDFPQPLIDPMPQGHSSQRSIIWRPSFSEGTDLFSFFRDVGLKILSNAKIKKPVDCSHRSPEYSTAMGAGGGHPEAFESSTPLHQAEDSQVRQYFPETWLWDLFPIGNSGKEAVHVTVPDAITEWKAMSFCTSQSRGFGLSPTVGLTAFKPFFVDLTLPYSVVRGESFRLTATIFNYLKDCIRVQTDLAKSHEYQLESWADSQTSSCLCADDAKTHHWNITAVKLGHINFTISTKILDSNEPCGGQKGFVPQKGRSDTLIKPVLVKPEGVLVEKTHSSLLCPKGKVASESVSLELPVDIVPDSTKAYVTVLGDIMGTALQNLDGLVQMPSGCGEQNMVLFAPIIYVLQYLEKAGLLTEEIRSRAVGFLEIGYQKELMYKHSNGSYSAFGERDGNGNTWLTAFVTKCFGQAQKFIFIDPKNIQDALKWMAGNQLPSGCYANVGNLLHTAMKGGVDDEVSLTAYVTAALLEMGKDVDDPMVSQGLRCLKNSATSTTNLYTQALLAYIFSLAGEMDIRNILLKQLDQQAIISGESIYWSQKPTPSSNASPWSEPAAVDVELTAYALLAQLTKPSLTQKEIAKATSIVAWLAKQHNAYGGFSSTQDTVVALQALAKYATTAYMPSEEINLVVKSTENFQRTFNIQSVNRLVFQQDTLPNVPGMYTLEASGQGCVYVQTVLRYNILPPTNMKTFSLSVEIGKARCEQPTSPRSLTLTIHTSYVGSRSSSNMAIVEVKMLSGFSPMEGTNQLLLQQPLVKKVEFGTDTLNIYLDELIKNTQTYTFTISQSVLVTNLKPATIKVYDYYLPDEQATIQYSDPCE
B4: ARG1 (protein, UniProt P05089 1-322)
chain: MSAKSRTIGIIGAPFSKGQPRGGVEEGPTVLRKAGLLEKLKEQECDVKDYGDLPFADIPNDSPFQIVKNPRSVGKASEQLAGKVAEVKKNGRISLVLGGDHSLAIGSISGHARVHPDLGVIWVDAHTDINTPLTTTSGNLHGQPVSFLLKELKGKIPDVPGFSWVTPCISAKDIVYIGLRDVDPGEHYILKTLGIKYFSMTEVDRLGIGKVMEETLSYLLGRKKRPIHLSFDVDGLDPSFTPATGTPVVGGLTYREGLYITEEIYKTGLLSGLDIMEVNPSLGKTPEEVTRTVNTAVAITLACFGLAREGNHKPIDYLNPPK
B5: CAPNS2 (protein, UniProt Q96L46 1-248)
chain: MFLAKALLEGADRGLGEALGGLFGGGGQRREGGGRNIGGIVGGIVNFISEAAAAQYTPEPPPTQQHFTSVEASESEEVRRFRQQFTQLAGPDMEVGATDLMNILNKVLSKHKDLKTDGFSLDTCRSIVSVMDSDTTGKLGFEEFKYLWNNIKKWQCVYKQYDRDHSGSLGSSQLRGALQAAGFQLNEQLYQMIVRRYANEDGDMDFNNFISCLVRLDAMFRAFKSLDRDRDGLIQVSIKEWLQLTMYS
B6: TYMP (protein, UniProt P19971 11-482)
chain: APPAPGDFSGEGSQGLPDPSPEPKQLPELIRMKRDGGRLSEADIRGFVAAVVNGSAQGAQIGAMLMAIRLRGMDLEETSVLTQALAQSGQQLEWPEAWRQQLVDKHSTGGVGDKVSLVLAPALAACGCKVPMISGRGLGHTGGTLDKLESIPGFNVIQSPEQMQVLLDQAGCCIVGQSEQLVPADGILYAARDVTATVDSLPLITASILSKKLVEGLSALVVDVKFGGAAVFPNQEQARELAKTLVGVGASLGLRVAAALTAMDKPLGRCVGHALEVEEALLCMDGAGPPDLRDLVTTLGGALLWLSGHAGTQAQGAARVAAALDDGSALGRFERMLAAQGVDPGLARALCSGSPAERRQLLPRAREQEELLAPADGTVELVRALPLALVLHELGAGRSRAGEPLRLGVGAELLVDVGQRLRRGTPWLRVHRDGPALSGPQSRALQEALVLSDRAPFAAPSPFAELVLPPQQ

The target in the first test is T1, ARG1 (human (endogenous in KM12C, KM12SM, SW480, SW620)) (UniProt P05089).
T1 sequence: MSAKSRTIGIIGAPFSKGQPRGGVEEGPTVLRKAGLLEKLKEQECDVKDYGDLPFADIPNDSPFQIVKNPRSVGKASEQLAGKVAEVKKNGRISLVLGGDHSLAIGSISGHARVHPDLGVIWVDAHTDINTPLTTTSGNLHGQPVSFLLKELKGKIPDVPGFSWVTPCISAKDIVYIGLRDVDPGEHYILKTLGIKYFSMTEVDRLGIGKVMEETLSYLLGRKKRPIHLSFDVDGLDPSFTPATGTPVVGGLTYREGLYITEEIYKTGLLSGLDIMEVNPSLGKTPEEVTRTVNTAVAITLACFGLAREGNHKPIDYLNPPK
The experiment in a line: co-IP; cross-validation: IP with antibodies specific to IL1RN or ARG1, Western blot with the anti-SPRYD7 antibody. In general terms: Immunoblotting shows a protein as a band on a membrane.
With B1, the binding entry is listed as “binds”.

The target in another test is IL1RN (human (endogenous in KM12C, KM12SM, SW480, SW620)) (UniProt P18510). The test is described as above.
Regarding B1, the binding result is listed as “binds”.

The target in another test is T2, SPRY domain-containing protein 7 (human) (UniProt Q5W111).
T2 sequence: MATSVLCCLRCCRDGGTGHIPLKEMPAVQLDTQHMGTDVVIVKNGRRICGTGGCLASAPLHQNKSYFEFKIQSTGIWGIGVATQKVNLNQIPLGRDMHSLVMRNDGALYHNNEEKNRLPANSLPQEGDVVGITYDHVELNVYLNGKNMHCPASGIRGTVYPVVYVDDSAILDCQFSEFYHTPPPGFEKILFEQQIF
Description: co-IP; second IP with anti-SPRYD7 antibody from extracts of KM12C, KM12SM, SW480 and SW620 cells stably overexpressing SPRYD7; Western blot with antibodies against the candidate proteins.
On to VPRBP (from UniProt Q9Y4B6 1-1507), for which the binding entry is “binds”.

In the case of SOD1 (from UniProt P00441 1-154), the binding entry is given as “binds”.

With IL1RN (from UniProt P18510 26-177), the binding entry is “binds”.

With NPHP3 (from UniProt Q7Z494 1-1330), the binding result is given as “binds”.

For the molecule B2, the binding entry is “binds”.

B3: the binding result is “binds”.

Take B4: the binding entry is “binds”.

Turning to B5, the binding result is “binds”.

With B6, the binding result is listed as “binds”.
